Test results published in article PMC4673491.
No constants are given. Whether binding was seen depends on the method and setting. In cells and extracts the contact can be indirect. For some assays here: Binding calls can cover weak binding; strength is not graded here. Where a sequence is shown, tags or fusion partners need not be part of it.

Amino acid sequences for entries named in this document (tags omitted). A change or cut given only in a name is not applied to a line headed by its entry.
UniProt P55085: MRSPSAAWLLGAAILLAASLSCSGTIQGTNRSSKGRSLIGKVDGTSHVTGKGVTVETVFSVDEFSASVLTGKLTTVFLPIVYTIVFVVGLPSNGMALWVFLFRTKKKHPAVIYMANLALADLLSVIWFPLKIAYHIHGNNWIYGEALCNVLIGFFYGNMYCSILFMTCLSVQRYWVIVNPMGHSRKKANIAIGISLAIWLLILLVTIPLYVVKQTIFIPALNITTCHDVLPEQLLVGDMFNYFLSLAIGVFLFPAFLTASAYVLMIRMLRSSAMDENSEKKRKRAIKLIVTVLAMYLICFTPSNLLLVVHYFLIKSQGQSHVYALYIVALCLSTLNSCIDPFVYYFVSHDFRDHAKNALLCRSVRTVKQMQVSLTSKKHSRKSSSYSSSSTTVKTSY

How the values were obtained:
GST-PH-Vav3 [1] = biological target: T1, GST-PH-Vav3 (UniProt Q9UKW4); assay: pull-down; lysates of HEK293T cells overexpressing PAR2 mutants or deletion constructs added to GST-PH-Etk/Bmx, GST-PH-Akt or GST-PH-Vav3; only the target purified
T1 sequence: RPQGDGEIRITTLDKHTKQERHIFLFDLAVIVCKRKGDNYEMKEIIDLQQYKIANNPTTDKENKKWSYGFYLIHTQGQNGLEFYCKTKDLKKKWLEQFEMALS

GST-PH-Vav3 [2] = biological target: T1, GST-PH-Vav3; assay: pull-down; GST-PH-Akt or GST-PH-Vav3 beads; lysates of cells that do not express Etk/Bmx (HEK 293T, HCT116); PAR2 detected with SAM11; only the target purified
GST-PH-Vav3 [3] = biological target: T1, GST-PH-Vav3; assay: condition: only lysates of HEK293T cells overexpressing Etk/Bmx (0.5–2 μg plasmid); pull-down; GST-PH-Akt or GST-PH-Vav3 beads; lysates of HEK293T cells overexpressing etk/bmx plasmid (0.5–2 μg); PAR2 detected with SAM11; only the target purified

| binding (GST-PH-Vav3 [1]) | binding (GST-PH-Vav3 [2]) | binding (GST-PH-Vav3 [3]) | Substance |
| --- | --- | --- | --- |
| no binding |  |  | hPar2 mutant H349A (from UniProt P55085) (receptor) |
| binds |  |  | hPar2 mutant R352A (from UniProt P55085) (receptor) |
| binds | binds | no binding | wild-type human Par2 (wt hPar2) (from UniProt P55085) (receptor) |
